Experimental data from the supplement of paper PMC11732987, “Enantioselective OTUD7B fragment discovery through chemoproteomics screening and high-throughput optimisation” (Communications Chemistry, 2025).
The list shows a part of the results. The data scatter; read single values as rough.

Protein sequences, listed by entry. Tags and fused reporters are not part of them. Lines headed by an entry give the natural chain unless they say otherwise; changes in a name come on top. Residues count along the entry.
UniProt O00471, 558-578: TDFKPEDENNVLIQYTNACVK
UniProt Q96EK7: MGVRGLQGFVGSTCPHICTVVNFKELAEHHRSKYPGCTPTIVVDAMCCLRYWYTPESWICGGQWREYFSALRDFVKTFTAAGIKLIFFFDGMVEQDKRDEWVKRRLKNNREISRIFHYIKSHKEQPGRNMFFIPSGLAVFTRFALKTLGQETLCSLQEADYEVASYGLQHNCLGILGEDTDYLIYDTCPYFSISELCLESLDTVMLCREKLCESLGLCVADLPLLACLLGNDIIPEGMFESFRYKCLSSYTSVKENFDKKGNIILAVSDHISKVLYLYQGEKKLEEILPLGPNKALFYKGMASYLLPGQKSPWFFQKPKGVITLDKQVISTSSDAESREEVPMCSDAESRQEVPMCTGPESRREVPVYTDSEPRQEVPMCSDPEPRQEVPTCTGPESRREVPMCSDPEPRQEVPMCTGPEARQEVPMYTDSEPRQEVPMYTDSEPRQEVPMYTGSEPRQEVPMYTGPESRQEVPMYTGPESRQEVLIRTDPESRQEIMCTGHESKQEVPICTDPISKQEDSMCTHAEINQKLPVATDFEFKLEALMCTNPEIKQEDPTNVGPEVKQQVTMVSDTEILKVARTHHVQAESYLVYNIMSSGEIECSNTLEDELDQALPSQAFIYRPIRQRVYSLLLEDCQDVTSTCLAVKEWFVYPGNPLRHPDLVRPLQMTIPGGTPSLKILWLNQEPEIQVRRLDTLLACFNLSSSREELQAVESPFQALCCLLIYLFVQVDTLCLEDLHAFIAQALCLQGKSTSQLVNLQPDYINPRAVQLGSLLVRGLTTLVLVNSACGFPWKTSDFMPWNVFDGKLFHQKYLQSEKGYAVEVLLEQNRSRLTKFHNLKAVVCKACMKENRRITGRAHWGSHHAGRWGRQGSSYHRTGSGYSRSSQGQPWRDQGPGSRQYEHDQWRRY
UniProt Q96HE7: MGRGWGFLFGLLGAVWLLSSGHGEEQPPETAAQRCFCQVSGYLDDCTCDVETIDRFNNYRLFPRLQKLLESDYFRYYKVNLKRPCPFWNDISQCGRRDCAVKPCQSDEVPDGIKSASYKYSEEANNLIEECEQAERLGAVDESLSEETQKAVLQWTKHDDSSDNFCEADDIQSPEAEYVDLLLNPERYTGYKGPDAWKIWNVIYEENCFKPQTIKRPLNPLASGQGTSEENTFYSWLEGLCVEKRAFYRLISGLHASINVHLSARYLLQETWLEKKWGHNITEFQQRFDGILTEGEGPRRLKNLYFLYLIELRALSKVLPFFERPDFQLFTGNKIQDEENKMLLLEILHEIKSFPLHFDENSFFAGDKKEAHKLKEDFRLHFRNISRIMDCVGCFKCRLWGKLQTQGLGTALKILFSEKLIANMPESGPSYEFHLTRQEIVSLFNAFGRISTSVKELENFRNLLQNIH
UniProt Q92889, 242-264: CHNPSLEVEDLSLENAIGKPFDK
UniProt Q96B26, whole entry, looked up: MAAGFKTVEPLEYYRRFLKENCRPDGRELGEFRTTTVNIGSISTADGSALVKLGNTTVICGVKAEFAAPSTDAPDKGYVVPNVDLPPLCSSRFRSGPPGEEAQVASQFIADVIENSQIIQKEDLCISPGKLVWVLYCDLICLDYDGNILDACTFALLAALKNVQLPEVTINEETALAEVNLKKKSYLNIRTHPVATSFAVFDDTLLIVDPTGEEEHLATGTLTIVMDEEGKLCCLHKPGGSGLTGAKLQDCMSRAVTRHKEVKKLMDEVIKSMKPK
UniProt Q9NYP7: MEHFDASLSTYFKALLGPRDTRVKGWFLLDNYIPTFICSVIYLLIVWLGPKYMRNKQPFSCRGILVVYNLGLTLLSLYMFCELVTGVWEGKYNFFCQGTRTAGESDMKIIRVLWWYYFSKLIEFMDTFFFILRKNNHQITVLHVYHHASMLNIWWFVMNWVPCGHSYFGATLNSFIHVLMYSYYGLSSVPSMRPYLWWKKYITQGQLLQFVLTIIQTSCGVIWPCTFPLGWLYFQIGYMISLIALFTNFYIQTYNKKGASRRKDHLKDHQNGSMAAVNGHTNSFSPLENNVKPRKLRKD
UniProt Q9H6T0: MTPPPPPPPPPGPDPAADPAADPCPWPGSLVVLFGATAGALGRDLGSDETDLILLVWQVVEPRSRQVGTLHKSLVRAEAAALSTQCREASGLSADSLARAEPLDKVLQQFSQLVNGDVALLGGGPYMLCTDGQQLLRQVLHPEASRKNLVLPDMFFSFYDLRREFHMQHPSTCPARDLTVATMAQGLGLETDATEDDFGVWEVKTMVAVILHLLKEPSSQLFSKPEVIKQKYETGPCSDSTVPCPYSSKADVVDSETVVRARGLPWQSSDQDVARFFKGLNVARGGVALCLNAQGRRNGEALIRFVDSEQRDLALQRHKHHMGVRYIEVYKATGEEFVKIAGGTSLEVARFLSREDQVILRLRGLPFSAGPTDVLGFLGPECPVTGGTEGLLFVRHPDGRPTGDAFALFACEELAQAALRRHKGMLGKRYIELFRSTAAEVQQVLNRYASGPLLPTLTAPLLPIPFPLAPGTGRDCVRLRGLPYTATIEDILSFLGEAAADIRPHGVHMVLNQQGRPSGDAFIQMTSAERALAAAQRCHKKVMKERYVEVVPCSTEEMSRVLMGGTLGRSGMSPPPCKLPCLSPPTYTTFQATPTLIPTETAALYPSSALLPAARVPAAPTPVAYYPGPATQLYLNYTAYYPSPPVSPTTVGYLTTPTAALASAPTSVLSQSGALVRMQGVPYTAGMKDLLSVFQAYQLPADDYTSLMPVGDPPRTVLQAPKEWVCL
UniProt Q96PV7: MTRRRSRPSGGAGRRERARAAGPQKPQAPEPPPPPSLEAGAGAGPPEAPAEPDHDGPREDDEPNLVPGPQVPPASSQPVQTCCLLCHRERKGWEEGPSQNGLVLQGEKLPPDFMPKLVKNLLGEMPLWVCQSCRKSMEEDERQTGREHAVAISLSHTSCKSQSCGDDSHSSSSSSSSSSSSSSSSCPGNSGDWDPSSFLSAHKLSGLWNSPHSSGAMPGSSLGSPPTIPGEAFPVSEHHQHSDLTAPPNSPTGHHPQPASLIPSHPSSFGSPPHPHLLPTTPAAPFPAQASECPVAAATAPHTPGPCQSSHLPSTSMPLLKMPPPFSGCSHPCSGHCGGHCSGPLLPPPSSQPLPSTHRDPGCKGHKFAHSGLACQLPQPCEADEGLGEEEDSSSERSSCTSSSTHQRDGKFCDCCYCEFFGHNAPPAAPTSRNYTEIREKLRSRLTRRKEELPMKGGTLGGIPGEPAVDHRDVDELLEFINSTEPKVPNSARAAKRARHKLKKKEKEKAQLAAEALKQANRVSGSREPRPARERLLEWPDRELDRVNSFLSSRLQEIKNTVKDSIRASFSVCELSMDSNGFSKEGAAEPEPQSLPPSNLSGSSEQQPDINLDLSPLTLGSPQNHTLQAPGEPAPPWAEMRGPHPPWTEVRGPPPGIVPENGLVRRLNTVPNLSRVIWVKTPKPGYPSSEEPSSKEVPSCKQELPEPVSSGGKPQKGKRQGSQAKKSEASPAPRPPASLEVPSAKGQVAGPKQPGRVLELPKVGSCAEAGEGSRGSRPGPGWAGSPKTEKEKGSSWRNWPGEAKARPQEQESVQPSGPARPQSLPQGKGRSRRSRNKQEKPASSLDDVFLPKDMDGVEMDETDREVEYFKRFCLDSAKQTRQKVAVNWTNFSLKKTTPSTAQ
UniProt Q6P587: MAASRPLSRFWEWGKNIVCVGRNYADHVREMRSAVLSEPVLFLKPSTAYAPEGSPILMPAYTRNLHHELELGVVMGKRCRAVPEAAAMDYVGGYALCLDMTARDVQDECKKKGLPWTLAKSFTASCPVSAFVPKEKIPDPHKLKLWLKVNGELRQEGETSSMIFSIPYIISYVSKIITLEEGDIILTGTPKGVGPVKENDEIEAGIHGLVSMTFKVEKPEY
UniProt P42566, 817-836: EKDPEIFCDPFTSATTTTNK
UniProt P25116: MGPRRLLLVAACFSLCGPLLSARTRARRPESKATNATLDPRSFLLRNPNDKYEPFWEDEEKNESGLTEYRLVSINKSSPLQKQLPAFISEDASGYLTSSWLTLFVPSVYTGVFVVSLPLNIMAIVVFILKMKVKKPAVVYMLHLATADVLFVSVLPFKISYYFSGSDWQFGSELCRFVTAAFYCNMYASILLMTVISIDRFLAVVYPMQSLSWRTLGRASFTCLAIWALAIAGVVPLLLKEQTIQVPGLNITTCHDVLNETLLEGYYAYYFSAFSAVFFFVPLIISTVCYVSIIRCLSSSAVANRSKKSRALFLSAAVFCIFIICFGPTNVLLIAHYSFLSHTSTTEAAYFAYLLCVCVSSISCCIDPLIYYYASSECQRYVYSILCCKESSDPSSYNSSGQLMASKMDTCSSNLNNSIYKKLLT
UniProt Q6P1L5: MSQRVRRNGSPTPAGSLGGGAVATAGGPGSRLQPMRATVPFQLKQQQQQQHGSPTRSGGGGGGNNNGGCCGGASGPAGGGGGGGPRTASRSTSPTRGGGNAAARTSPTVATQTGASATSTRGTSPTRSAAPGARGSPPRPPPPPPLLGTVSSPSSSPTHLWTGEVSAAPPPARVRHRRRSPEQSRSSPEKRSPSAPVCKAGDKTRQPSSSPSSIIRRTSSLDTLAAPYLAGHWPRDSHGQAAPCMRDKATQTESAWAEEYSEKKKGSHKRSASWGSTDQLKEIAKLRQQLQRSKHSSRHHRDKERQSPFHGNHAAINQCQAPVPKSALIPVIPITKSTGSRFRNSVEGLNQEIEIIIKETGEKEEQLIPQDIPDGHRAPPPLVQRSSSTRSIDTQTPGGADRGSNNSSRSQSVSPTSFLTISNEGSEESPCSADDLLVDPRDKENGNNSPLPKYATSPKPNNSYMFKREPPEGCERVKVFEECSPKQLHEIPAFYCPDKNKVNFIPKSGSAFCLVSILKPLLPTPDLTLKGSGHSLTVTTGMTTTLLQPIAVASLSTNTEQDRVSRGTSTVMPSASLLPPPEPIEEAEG
UniProt Q9UBU6: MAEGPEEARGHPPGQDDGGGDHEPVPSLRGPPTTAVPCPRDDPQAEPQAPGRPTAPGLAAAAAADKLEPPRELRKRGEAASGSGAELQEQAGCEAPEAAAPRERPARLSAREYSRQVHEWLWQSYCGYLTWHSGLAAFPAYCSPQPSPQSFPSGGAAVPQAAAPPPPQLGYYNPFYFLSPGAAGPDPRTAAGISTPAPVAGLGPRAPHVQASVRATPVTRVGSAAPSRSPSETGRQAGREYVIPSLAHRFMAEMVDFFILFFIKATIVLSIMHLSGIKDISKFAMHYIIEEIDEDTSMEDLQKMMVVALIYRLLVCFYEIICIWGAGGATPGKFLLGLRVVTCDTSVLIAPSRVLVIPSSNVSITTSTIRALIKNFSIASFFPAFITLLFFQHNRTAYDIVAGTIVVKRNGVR
UniProt Q2NKX8: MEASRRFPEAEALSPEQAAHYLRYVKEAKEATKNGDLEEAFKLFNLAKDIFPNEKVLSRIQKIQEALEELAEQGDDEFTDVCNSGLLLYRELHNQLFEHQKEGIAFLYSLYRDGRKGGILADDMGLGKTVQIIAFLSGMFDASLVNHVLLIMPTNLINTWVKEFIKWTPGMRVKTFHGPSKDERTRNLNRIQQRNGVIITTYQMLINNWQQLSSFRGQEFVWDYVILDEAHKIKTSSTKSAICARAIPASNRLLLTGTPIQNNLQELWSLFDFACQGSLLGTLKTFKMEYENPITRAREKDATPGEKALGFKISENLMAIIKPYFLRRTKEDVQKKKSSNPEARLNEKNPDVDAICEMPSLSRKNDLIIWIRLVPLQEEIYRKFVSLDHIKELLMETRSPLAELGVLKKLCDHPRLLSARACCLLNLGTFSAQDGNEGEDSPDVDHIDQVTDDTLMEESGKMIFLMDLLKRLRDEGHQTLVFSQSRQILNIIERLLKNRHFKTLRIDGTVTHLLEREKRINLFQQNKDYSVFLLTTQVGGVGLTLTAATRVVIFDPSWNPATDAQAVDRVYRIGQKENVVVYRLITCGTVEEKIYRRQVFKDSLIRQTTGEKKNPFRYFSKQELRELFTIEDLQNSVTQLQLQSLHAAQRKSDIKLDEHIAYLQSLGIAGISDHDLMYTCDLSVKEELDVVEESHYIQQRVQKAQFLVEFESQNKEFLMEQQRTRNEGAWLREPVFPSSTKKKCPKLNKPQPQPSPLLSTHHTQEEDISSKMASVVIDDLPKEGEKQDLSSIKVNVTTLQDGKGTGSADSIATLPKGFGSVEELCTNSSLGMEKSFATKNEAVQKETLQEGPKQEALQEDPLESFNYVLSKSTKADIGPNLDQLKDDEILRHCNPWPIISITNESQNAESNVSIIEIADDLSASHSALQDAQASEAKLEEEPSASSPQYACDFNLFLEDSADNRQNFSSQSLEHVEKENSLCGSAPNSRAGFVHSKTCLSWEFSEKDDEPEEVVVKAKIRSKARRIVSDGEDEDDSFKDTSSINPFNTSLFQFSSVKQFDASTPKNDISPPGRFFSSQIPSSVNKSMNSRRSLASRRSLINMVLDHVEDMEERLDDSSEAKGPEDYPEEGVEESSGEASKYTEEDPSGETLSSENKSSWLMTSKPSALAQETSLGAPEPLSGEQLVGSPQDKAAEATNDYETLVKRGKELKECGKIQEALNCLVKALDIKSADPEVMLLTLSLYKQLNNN

compound: ClCC(=O)N[C@@H]1CCCc2ccccc12; assay: log2 mean competition ratio of IA-DTB cysteine labelling (DMSO/compound) (log2 ratio); higher = stronger cysteine engagement by compound; details: 50 µM; treatment time: 4 h; cell line lysate: HEK293T
Protocol: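 IA-DTB competitive cysteine chemoproteomics in HEK293T RIPA lysate. Lysates were treated with compound 29 or 30 at 50 or 200 µM for 4 h, then IA-DTB (500 µM, 1 h), trypsin-digested, NeutrAvidin-enriched and analysed by diaPASEF. Competition ratio = intensity DMSO / intensity compound (n=4 treated, n=64 DMSO); binding: mean log2 CR ≥ 1 and p ≤ 0.05 plus QC filters. Target is the cysteine site.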

Target | log2 mean competition ratio
ESPNL C629 | 0.13
ERCC3 C342 (UniProt P19447) | -0.047
EXOC5 C236 (UniProt O00471) | -0.0504
EPRS1 C697 | -0.317
ESYT1 C370 (UniProt Q9BSJ8) | 0.146
EXOSC9 C9 (UniProt Q06265) | -0.157
ERCC5 C529 (UniProt P28715) | 0.105
FAM120B C380(C404) (UniProt Q96EK7) | -0.119
ERO1A C131 (UniProt Q96HE7) | -0.418
ERCC6 C143 | -0.126
ERCC4 C242 (UniProt Q92889) | 0.299
FAM120B C380 (UniProt Q96EK7) | -0.282
EXOC5 C576 (UniProt O00471) | 0.0869
ESCO1 C450 | -0.102
EXOSC8 C22 (UniProt Q96B26) | 0.23
FAN1 C649 | 0.239
ELOVL5 C96 (UniProt Q9NYP7) | 0.414
ESRP2 C86 (UniProt Q9H6T0) | -0.188
EXOSC8 C89 (UniProt Q96B26) | 0.108

Target | log2 mean competition ratio
FAM193B C766 (UniProt Q96PV7) | 0.208
ELP4 C218 (UniProt Q96EB1) | 0.164
ESRRG C104 | -0.235
FAM120B C511 (UniProt Q96EK7) | -0.24
EPS15L1 C470 | -0.0305
FAHD1 C129 (UniProt Q6P587) | 0.152
EPS15 C824 (UniProt P42566) | 0.206
ESPNL C983 | -0.41
FAM136A C53 (UniProt Q96C01) | -0.113
ERI1 C75 (UniProt Q8IV48) | 0.25
EP400 C1775 (UniProt Q96L91) | 0.256
F2R C296 (UniProt P25116) | -0.0516
EME1 C437 (UniProt Q96AY2) | -0.136
ELP2 C204 (UniProt Q6IA86) | 0.175
ELOVL5 C61 (UniProt Q9NYP7) | 0.0956
FAM117B C198 (UniProt Q6P1L5) | -0.0494
FAM8A1 C38 (UniProt Q9UBU6) | -0.0854
FAM120B C356 (UniProt Q96EK7) | -0.283
ERCC6L C1222 (UniProt Q2NKX8) | 0.108

same assay, conditions: 200 µM; treatment time: 4 h; cell line lysate: HEK293T

Target | log2 mean competition ratio
ESPNL C629 | 0.27
ERCC3 C342 (UniProt P19447) | -0.0725
EXOC5 C236 (UniProt O00471) | 0.0279
EPRS1 C697 | -0.00578
ESYT1 C370 (UniProt Q9BSJ8) | 0.0526
EXOSC9 C9 (UniProt Q06265) | -0.0952
ERCC5 C529 (UniProt P28715) | -0.448
FAM120B C380(C404) (UniProt Q96EK7) | 0.0784
ERO1A C131 (UniProt Q96HE7) | 0.341
ERCC6 C143 | -0.389
ERCC4 C242 (UniProt Q92889) | 0.0771
FAM120B C380 (UniProt Q96EK7) | 0.0744
EXOC5 C576 (UniProt O00471) | -0.418
ESCO1 C450 | -0.0568
EXOSC8 C22 (UniProt Q96B26) | 0.124
FAN1 C649 | 0.184
ELOVL5 C96 (UniProt Q9NYP7) | -0.0518
ESRP2 C86 (UniProt Q9H6T0) | -0.279
EXOSC8 C89 (UniProt Q96B26) | -0.0195

Target | log2 mean competition ratio
FAM193B C766 (UniProt Q96PV7) | 0.0545
ELP4 C218 (UniProt Q96EB1) | 0.466
ESRRG C104 | 0.124
FAM120B C511 (UniProt Q96EK7) | -0.161
EPS15L1 C470 | -0.1
FAHD1 C129 (UniProt Q6P587) | 0.115
EPS15 C824 (UniProt P42566) | -0.0122
ESPNL C983 | 0.264
FAM136A C53 (UniProt Q96C01) | 0.125
ERI1 C75 (UniProt Q8IV48) | 0.167
EP400 C1775 (UniProt Q96L91) | -0.278
F2R C296 (UniProt P25116) | -0.121
EME1 C437 (UniProt Q96AY2) | -0.101
ELP2 C204 (UniProt Q6IA86) | 0.048
ELOVL5 C61 (UniProt Q9NYP7) | 0.479
FAM117B C198 (UniProt Q6P1L5) | 0.153
FAM8A1 C38 (UniProt Q9UBU6) | -0.1
FAM120B C356 (UniProt Q96EK7) | 0.0851
ERCC6L C1222 (UniProt Q2NKX8) | 0.0236
